Test results reported in article PMC12517307.
No constants are given. Whether binding was seen depends on the method and setting. Binding seen in cells or lysates may run through a third protein. Some binding calls cover weakened binding; strength is not graded here.

Target: p53 (UniProt P04637)
Experiment: co-IP; HEK293T cells transfected with p53, p300 and NDN expression plasmids, with or without LKU4–CM for 24 h; IP with anti-p53 and anti-p300 antibodies, Western blot of the immunoprecipitates

binding: binds
B1: necdin (protein, UniProt P25233 1-325)
chain: MSEQSKDLSDPNFAAEVPDCEMQDSDAVPVGIPPPASLAANLAGPPCAPEGPMAAQQASPPPEERIEDVDPKILQQAAEEGRAHQPQSPARPIPAPPAPAQLVQKAHELMWYVLVKDQKRMVLWFPDMVKEVMGSYKKWCRSILRRTSVILARVFGLHLRLTNLHTMEFALVKALSPEELDRVALNNRMPMTGLLLMILSLIYVKGRGAREGAVWNVLRILGLRPWKKHSTFGDVRKIITEEFVQQNYLKYQRVPHIEPPEYEFFWGSRANREITKMQIMEFLARVFKKDPQAWPSRYREALEQARALREANLAAQAPRSSVSED
